PubChem BioAssay AID1671195 | Yale University | 2021
Test: 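Genes whose knockdown alters LDL uptake in liver cancer cells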 (primary screen). System: human Huh7 hepatoma cells. Reagent: siRNA pool against human genes, 18 nM. Time to read-out: about 2 to 2.5 days of knockdown, then 8 h LDL uptake. Conditions: DiI-labelled LDL at 30 µg/ml for 8 h, in lipoprotein-deficient serum medium. Measurement: 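Per-cell DiI-LDL intensity by automated imaging; well means scaled to the plate median and given as a robust z-score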. Reading the numbers: robust z-score: higher = more LDL uptake after knockdown. Hit rule: 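Active when two or more replicates show a robust z-score above 2 or below -2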.
This is one part, drawn at random, of about 22,000 reagents. In the full data, about 1,510 (6.9%) got an active call. 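Active includes knockdowns raising or lowering LDL uptake; positive z-scores mean more uptake, negative mean less.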 A number with no mark means an inactive call.

The opening 5 records, ahead of the listing:
gene symbol | robust z-score, replicate 1 | robust z-score, replicate 2 | robust z-score, replicate 3
SMUG1 (GeneID 23583) | -0.166 | -0.83 | 0.375
CEMIP (GeneID 57214) | 0.805 | 0.865 | 0.778
APOLD1 (GeneID 81575) | 0.65 | 0.882 | 1.19
BIRC6 (GeneID 57448) | 1.41 | 1.04 | 0.942
OPLAH (GeneID 26873) | -0.151 | -0.091 | 0.156

Results, repeating the preview:
gene symbol | robust z-score, replicate 1 | robust z-score, replicate 2 | robust z-score, replicate 3
SMUG1 (GeneID 23583) | -0.166 | -0.83 | 0.375
CEMIP (GeneID 57214) | 0.805 | 0.865 | 0.778
APOLD1 (GeneID 81575) | 0.65 | 0.882 | 1.19
BIRC6 (GeneID 57448) | 1.41 | 1.04 | 0.942
OPLAH (GeneID 26873) | -0.151 | -0.091 | 0.156
LINC02774 (GeneID 339529) | -0.582 | -0.521 | -0.65
MSL3 (GeneID 10943) | -0.0346 | 0.562 | 0.434
GEMIN7 (GeneID 79760) | -0.351 | -0.535 | -0.669
PDCD10 (GeneID 11235) | -1.13 | -0.446 | -0.736
DISP1 (GeneID 84976) | -0.748 | -0.201 | -0.233
SLC16A4 (GeneID 9122) | 1.28 | 1.62 | 1.71
EMB (GeneID 133418) | -0.291 | -0.194 | -0.471
MBTPS1 (GeneID 8720) | 0.149 | 0.516 | 0.781
LOC284788 (GeneID 284788) | -1.09 | -1.46 | -1.44
OR2AG1 (GeneID 144125) | 0.161 | 0.497 | 0.329
SOCS2 (GeneID 8835) | -0.457 | 0.488 | -1.35
XPOT (GeneID 11260) | -0.758 | 0.56 | 0.277
SPANXN4 (GeneID 441525) | -0.326 | -0.753 | -0.582
LINC00683 (GeneID 400660) | 0.0208 | -0.336 | -0.765
DHX34 (GeneID 9704) | 0.102 | -1.77 | -0.0477
CRYBB2 (GeneID 1415) | -1.13 | 0.177 | -0.758
ZNF319 (GeneID 57567) | 5.85 (active) | 6.3 | 5.96
DDAH1 (GeneID 23576) | 0.199 | -0.204 | -0.454
LOC440968 (retired record) (GeneID 440968) | -0.674 | 0.141 | -0.159
FGD6 (GeneID 55785) | -0.159 | 0.868 | 0.425
NME3 (GeneID 4832) | 0.0133 | 1.81 | 0.849
SLN (GeneID 6588) | 0.445 | 0.884 | 0.104
ACAT1 (GeneID 38) | -0.771 | -0.289 | -0.845
GPR63 (GeneID 81491) | -2.15 | -0.665 | 0.25
CAPN10 (GeneID 11132) | -1.02 | -0.0591 | -0.508
ACCS (GeneID 84680) | 0.568 | 0.235 | -0.106
REEP6 (GeneID 92840) | -1.22 | -0.504 | -0.139
APOE (GeneID 348) | 0.138 | 0.907 | -0.532
LOC440450 (retired record) (GeneID 440450) | 0.815 | 0.683 | 0.866
H4C2 (GeneID 8366) | -0.76 | 0.932 | 0.458
C1orf5 (retired record) (GeneID 10759) | -0.344 | -0.748 | -1.66
ACOT11 (GeneID 26027) | 0.0972 | 0.216 | 0.477
ASCL4 (GeneID 121549) | -0.49 | 0.127 | 0.902
LOC400572 (retired record) (GeneID 400572) | 1.75 | 1.24 | 1.43
OCLM (retired record) (GeneID 10896) | 1.9 | 2.32 | 0.951
GSTZ1 (GeneID 2954) | -1.17 | -0.89 | -1.47
NOXRED1 (GeneID 122945) | 0.733 | 0.482 | 0.742
LOC388476 (retired record) (GeneID 388476) | -0.75 | -0.998 | -0.989
LOC440619 (retired record) (GeneID 440619) | 1.2 | 1.62 | 1.45
CEP68 (GeneID 23177) | -1.3 | -0.0827 | -2.48
FDFT1 (GeneID 2222) | -0.288 | -0.535 | -0.114
NEDD4 (GeneID 4734) | 0.0712 | -0.133 | 0.807
ACAP3 (GeneID 116983) | -0.211 | -0.538 | -0.584
MYPOP (GeneID 339344) | -1.22 | -1.25 | -1.13
ZNF576 (GeneID 79177) | -0.173 | -0.441 | 0.0571
TMEM87A (GeneID 25963) | 1.42 | 0.303 | 1.66
CLDN9 (GeneID 9080) | -0.742 | -0.353 | -0.573
POLN (GeneID 353497) | 3.53 (active) | 2.64 | 3.39
GLRX (GeneID 2745) | -0.873 | -0.184 | -1.18
IRF2BPL (GeneID 64207) | -0.721 | -0.337 | 0.239
MOB2 (GeneID 81532) | 0.083 | 0.864 | 0.591
AQP3 (GeneID 360) | -0.553 | -0.954 | -0.562
FAM20A (GeneID 54757) | 0.625 | -0.262 | 1.58
KRT32 (GeneID 3882) | 0.97 | -0.788 | 0.174
COP1 (GeneID 64326) | 1.66 | 1.45 | 2.45
TFDP2 (GeneID 7029) | 0.931 | 1.13 | 2.48
TIMM17BP1 (GeneID 390298) | 0.256 | 0.503 | 0.715
DLK2 (GeneID 65989) | 1.5 | 1.85 | 1.95
OR6C68 (GeneID 403284) | -0.623 | 0.21 | -0.235
ALG6 (GeneID 29929) | 0.764 | 2.41 | 0.842
MAPK7 (GeneID 5598) | -1.4 | -1.49 | -1.18
ZNF506 (GeneID 440515) | 0.731 | 1.04 | 0.201
ABCC8 (GeneID 6833) | -1.17 | -1.42 | -0.983
